In the assay the target is T1, canonical FNDC4 protein (fibronectin III domain containing 4), Myc-FLAG-tagged (human) (UniProt Q9H6D8).
T1 sequence: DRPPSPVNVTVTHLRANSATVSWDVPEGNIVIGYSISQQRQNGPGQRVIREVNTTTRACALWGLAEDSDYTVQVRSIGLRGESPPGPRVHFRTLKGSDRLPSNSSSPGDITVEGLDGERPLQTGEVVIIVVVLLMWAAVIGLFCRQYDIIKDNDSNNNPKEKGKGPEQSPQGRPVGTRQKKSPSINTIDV
Briefly: co-IP; Myc-FLAG-tagged FNDC4 (canonical or truncated) or empty vector overexpressed in iPSC-derived NPCs; precipitated with anti-MYC magnetic beads; partners detected by Western blot. (In general: A western blot detects proteins with antibodies after separation by electrophoresis.)

Chains of the proteins cited; added tags and fusions are not shown. Lines headed by an entry give the natural chain unless they say otherwise; changes in a name come on top. Residues count along the entry.
UniProt P08758: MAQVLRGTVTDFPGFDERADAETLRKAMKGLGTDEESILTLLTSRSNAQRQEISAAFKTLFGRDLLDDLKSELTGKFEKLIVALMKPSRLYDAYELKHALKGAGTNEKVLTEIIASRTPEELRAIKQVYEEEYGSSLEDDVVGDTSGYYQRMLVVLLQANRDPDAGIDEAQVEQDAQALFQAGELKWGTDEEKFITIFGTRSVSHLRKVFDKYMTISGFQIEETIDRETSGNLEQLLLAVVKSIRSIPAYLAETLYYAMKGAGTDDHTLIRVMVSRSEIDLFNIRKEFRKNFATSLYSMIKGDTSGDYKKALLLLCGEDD
UniProt P14625, residues 22-803: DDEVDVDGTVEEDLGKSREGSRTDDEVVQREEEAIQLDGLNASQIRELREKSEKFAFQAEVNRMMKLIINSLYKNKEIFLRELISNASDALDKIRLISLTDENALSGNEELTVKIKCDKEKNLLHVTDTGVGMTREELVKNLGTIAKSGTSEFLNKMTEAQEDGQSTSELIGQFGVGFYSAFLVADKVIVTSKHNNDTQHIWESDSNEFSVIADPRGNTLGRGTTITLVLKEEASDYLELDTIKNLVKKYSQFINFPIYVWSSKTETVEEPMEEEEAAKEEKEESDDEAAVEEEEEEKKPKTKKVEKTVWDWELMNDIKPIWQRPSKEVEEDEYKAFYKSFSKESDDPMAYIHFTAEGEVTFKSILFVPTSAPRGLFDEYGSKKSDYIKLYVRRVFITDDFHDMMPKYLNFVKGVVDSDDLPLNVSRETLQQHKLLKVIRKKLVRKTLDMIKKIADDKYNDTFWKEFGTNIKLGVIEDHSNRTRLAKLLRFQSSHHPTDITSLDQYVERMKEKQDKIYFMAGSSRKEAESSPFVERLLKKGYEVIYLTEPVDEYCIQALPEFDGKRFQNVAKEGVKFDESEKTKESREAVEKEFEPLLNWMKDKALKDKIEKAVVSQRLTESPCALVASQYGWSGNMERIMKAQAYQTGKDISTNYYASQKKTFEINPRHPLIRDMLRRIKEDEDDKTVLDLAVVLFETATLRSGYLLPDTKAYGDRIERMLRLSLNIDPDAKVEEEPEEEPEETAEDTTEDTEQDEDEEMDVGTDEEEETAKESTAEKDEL
UniProt P05556: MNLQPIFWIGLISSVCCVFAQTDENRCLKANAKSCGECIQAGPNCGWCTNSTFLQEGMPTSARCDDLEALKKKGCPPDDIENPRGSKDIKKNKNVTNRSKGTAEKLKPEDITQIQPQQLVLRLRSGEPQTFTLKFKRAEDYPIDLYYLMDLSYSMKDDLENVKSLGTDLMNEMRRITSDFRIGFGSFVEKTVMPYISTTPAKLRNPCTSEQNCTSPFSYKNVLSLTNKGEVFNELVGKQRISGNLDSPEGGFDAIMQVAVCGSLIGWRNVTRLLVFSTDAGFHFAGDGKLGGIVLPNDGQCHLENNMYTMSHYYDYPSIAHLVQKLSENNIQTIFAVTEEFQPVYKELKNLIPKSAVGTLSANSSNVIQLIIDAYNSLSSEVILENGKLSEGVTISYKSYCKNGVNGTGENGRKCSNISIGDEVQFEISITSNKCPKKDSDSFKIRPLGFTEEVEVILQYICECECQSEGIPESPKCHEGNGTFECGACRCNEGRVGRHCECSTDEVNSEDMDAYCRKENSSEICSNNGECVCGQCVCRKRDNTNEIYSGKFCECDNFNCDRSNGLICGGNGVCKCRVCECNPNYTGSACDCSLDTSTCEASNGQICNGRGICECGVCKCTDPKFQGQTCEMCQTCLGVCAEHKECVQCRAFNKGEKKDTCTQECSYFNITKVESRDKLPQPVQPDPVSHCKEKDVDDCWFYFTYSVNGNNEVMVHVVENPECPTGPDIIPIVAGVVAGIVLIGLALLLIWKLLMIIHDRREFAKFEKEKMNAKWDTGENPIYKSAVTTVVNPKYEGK

The results in this text go back to PMC12948423.

Results are given in words; binding and its absence hold for the method and conditions named. Binding seen in cells or lysates may run through a third protein. Some binding calls cover weakened binding; strength is not graded here. Sequences can lack the tags named with a protein.

As to ANXA5 (from UniProt P08758 1-320), the binding result is listed as “binds”.

Consider HSP90B1 (from UniProt P14625 22-803), for which the binding entry was “binds”.

Turning to “integrin subunit β-1 (ITGB1) (from UniProt P05556 21-798)”, the binding result was “binds”.
